In assay [1] the target is GmWRKY40 (Glycine max) (UniProt I1KTB9). Briefly: two-hybrid; pairwise confirmation: BD fusions of GmWRKY40 or its domain mutants (pGBKT7) with AD fusions of JAZ1-JAZ8 (pGADT7); synthetic dropout medium with X-alpha-gal lacking leucine, tryptophan, histidine and adenine; blue colonies positive; dilutions 0.8, 0.08, 0.008.
The target is the same in assay [2]. The assay is described as follows: two-hybrid; yeast two-hybrid screening for GmWRKY40-interacting partners, GmWRKY40 as bait; synthetic dropout medium with X-alpha-gal lacking leucine, tryptophan, histidine and adenine.
For assay [3], the target named is GmWRKY40 WRKY domain mutant (Glycine max). The assay is described as follows: two-hybrid; pairwise confirmation: BD fusions of GmWRKY40 or its domain mutants (pGBKT7) with AD fusions of JAZ1-JAZ8 (pGADT7); synthetic dropout medium with X-alpha-gal lacking leucine, tryptophan, histidine and adenine; blue colonies positive; dilutions 0.8, 0.08, 0.008.
The target in assay [4] is GmWRKY40 zinc-finger domain mutant (Glycine max). The assay is described as above.
Assay [5] has as its target GmWRKY40 (Glycine max) (UniProt I1KTB9). The assay is described as above. This is another data set of the same source.

No constants are given. Whether binding was seen depends on the method and setting. For part of these data: Binding can be weak; no strength is given.

“JAZ4 (Glyma.13G112000.1) (from UniProt I1LY77)”: in the assay with GmWRKY40 (Glycine max) [1], the binding result was “binds”. Same read-out and setting: in the case of “JAZ5 (Glyma.16G010000.1) (from UniProt C6TNM1)” it was “binds”.

B1: JAZ1 (Glyma.07G041400.1), clone found in the yeast two-hybrid screening (protein, UniProt C6TCZ5 1-232)
chain: MSSFPNTVAEGRRSGKAPEKSTFSQTCSLLSQFLKEKRASADSTLGIGGKMEPKANTKALLGSLQNSDGALKLSASAMEFLPQLVENPCIKKSRSPGPESPQLTIFYAGKMLVFDAFPPEKATEVMEMATKLASNNSGTEESPPSLPVTTEKLAVSKMPQTNTSSETPKPGNQGVGSDMRYPRRASLLKFLEKRKERVNARGPYQMNNLKPEGSSSGGEPEDQCSKQFDLNF
Consider B1, for which, in the assay with GmWRKY40 (Glycine max) [2], the binding entry is reported as “binds”.

B2: JAZ1 (Glyma.07G041400.1) (protein, UniProt C6TCZ5 1-232)
chain: MSSFPNTVAEGRRSGKAPEKSTFSQTCSLLSQFLKEKRASADSTLGIGGKMEPKANTKALLGSLQNSDGALKLSASAMEFLPQLVENPCIKKSRSPGPESPQLTIFYAGKMLVFDAFPPEKATEVMEMATKLASNNSGTEESPPSLPVTTEKLAVSKMPQTNTSSETPKPGNQGVGSDMRYPRRASLLKFLEKRKERVNARGPYQMNNLKPEGSSSGGEPEDQCSKQFDLNF
In the case of B2, the binding result in assay [3] is listed as “no binding”; in assay [4], “no binding”; with GmWRKY40 (Glycine max) [5], “binds”.
